# According to paper PMC5117207:
# Results are given in words; binding and its absence hold for the method and conditions named. For part of these data: Binding calls can cover weak binding; strength is not graded here. Where a sequence is shown, tags or fusion partners need not be part of it.
# Legend:
# Experiment in all cases: pull-down; GST-HSP90 fragments on glutathione-agarose beads incubated overnight at 4°C with purified His-tagged GR-LBD or REV-ERBα; eluted with 10 mM reduced glutathione; western blot with anti-GST and anti-His antibodies; both purified
# GST-Hsp90M(272-617) = biological target: GST-Hsp90M(272-617)
# GST-Hsp90 C(626-732) = biological target: GST-Hsp90 C(626-732)
# GST-Hsp90 N(9-236) = biological target: GST-Hsp90 N(9-236)
binder,measurement,setting,value
"full-length REV-ERBα, His-tagged (protein, UniProt Q3UV55 1-615) MTTLDSNNNTGGVITYIGSSGSSPSRTSPESLYSDSSNGSFQSLTQGCPTYFPPSPTGSLTQDPARSFGSAPPSLSDDSSPSSASSSSSSSSSSFYNGSPPGSLQVAMEDSSRVSPSKGTSNITKLNGMVLLCKVCGDVASGFHYGVHACEGCKGFFRRSIQQNIQYKRCLKNENCSIVRINRNRCQQCRFKKCLSVGMSRDAVRFGRIPKREKQRMLAEMQSAMNLANNQLSSLCPLETSPTPHPTSGSMGPSPPPAPAPTPLVGFSQFPQQLTPPRSPSPEPTMEDVISQVARAHREIFTYAHDKLGTSPGNFNANHASGSPSATTPHRWESQGCPSAPNDNNLLAAQRHNEALNGLRQGPSSYPPTWPSGPTHHSCHQPNSNGHRLCPTHVYSAPEGEAPANSLRQGNTKNVLLACPMNMYPHGRSGRTVQEIWEDFSMSFTPAVREVVEFAKHIPGFRDLSQHDQVTLLKAGTFEVLMVRFASLFNVKDQTVMFLSRTTYSLQELGAMGMGDLLNAMFDFSEKLNSLALTEEELGLFTAVVLVSADRSGMENSASVEQLQETLLRALRALVLKNRPSETSRFTKLLLKLPDLRTLNNMHSEKLLSFRVDAQ",binding,GST-Hsp90M(272-617),no binding
same,binding,GST-Hsp90 C(626-732),binds
same,binding,GST-Hsp90 N(9-236),no binding
